From publication PMC12350847
The exact form of at least one protein or probe is not confirmed. For some assays here: No signal at the amounts used counts as a negative. For some assays here: At least one verdict rests on a figure or table, not on a statement of the authors. For some assays here: Where a protein sequence is shown, tags need not be part of it.

Sequences of proteins named here, by UniProt entry; tags and fusion partners are left off. A change or cut given only in a name is not applied to a line headed by its entry.
UniProt P26651: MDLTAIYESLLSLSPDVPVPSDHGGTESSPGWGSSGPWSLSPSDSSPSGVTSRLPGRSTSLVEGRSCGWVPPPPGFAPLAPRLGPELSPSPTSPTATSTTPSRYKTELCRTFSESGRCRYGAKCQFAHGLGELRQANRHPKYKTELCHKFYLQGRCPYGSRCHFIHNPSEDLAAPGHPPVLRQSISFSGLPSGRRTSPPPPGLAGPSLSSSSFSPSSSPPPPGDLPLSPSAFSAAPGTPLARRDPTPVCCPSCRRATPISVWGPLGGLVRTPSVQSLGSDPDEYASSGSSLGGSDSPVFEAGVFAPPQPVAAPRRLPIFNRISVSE

Columns and labels:
Assay in all cases: EMSA
[1] = target: pTTP (OA), hyperphosphorylated TTP (Homo sapiens) (UniProt P26651); conditions: okadaic acid-induced hyperphosphorylation, 400 nM protein, 50 nM RNA; EMSA: 50 nM RNA, 400 nM TTP proteins or 200 nM pZFP36L2; recombinant protein; residues 1-326; protein details: N-terminal MBP (TEV-cleavable), C-terminal StrepII
[2] = target: pTTP (phosphorylated tristetraprolin) (Homo sapiens) (UniProt P26651); conditions: no okadaic acid, 400 nM protein, 50 nM RNA; EMSA: 50 nM RNA, 400 nM TTP proteins or 200 nM pZFP36L2; recombinant protein; residues 1-326; protein details: N-terminal MBP (TEV-cleavable), C-terminal StrepII
pZFP36L2 (Homo sapiens) = target: T1, pZFP36L2 (Homo sapiens) (UniProt P47974); conditions: 200 nM protein, 50 nM RNA; EMSA: 50 nM RNA, 400 nM TTP proteins or 200 nM pZFP36L2; recombinant protein; residues 1-494; protein details: N-terminal MBP (TEV-cleavable), C-terminal StrepII
T1 sequence (looked up): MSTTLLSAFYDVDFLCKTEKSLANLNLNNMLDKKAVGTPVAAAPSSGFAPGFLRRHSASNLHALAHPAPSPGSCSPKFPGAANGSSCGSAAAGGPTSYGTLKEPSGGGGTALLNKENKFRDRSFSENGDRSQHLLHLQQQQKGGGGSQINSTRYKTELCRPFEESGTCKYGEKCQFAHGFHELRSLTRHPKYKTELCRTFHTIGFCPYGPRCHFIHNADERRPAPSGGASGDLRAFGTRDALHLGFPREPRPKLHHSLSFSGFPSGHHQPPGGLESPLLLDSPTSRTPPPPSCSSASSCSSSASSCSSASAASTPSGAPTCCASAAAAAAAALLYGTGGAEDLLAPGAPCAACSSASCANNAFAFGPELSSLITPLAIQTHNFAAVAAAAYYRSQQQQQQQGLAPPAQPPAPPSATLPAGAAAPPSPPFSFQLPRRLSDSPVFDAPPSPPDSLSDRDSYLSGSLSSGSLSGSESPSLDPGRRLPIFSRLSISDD

pZFP36L2 + 14-3-3 beta = conditions: tenfold excess of 14-3-3 beta, no difference from pZFP36L2 alone; EMSA: 50 nM RNA, 400 nM TTP proteins or 200 nM pZFP36L2; recombinant protein
pZFP36L2 + 14-3-3 eta = conditions: tenfold excess of 14-3-3 eta, no difference from pZFP36L2 alone; EMSA: 50 nM RNA, 400 nM TTP proteins or 200 nM pZFP36L2; recombinant protein

## UUAUUUAUUAAAAAAAAAAAAAAAAAAAA [ARE-WT-RNA (single TTP motif, A20 tail)]
[1]
  binding result: no binding
[2]
  binding result: binds
pZFP36L2 (Homo sapiens)
  binding result: binds
pZFP36L2 + 14-3-3 beta
  binding result: binds
pZFP36L2 + 14-3-3 eta
  binding result: binds
